Assay results as given in publication PMC9495676, “Evaluation of the Antimicrobial Properties of a Natural Peptide from Vespa mandarinia Venom and Its Synthetic Analogues as a Possible Route to Defeat Drug-Resistant Microbes” (Biology, 2022).

System: horse erythrocytes
Assay: Haemolysis assay
Type: cell-based
Details: HC50 horse erythrocytes divided by minimum MIC
Experimental: Defibrinated horse erythrocytes (TCS Biosciences Ltd., Buckingham, UK) were used in the haemolysis assay. Peptides, from 1 μM to 512 μM, were tested with a 4% (v/v) erythrocyte suspension and were incubated at 37 °C for 2 h, while 1% Triton X-100 (Sigma-Aldrich, St. Louis, MO, USA) was acted as a positive control and phosphate-buffered saline (PBS) was used as a negative control. The sample supernatants were analysed at 550 nm on an ELISA plate reader (Biolise BioTek EL808, Winooski, VT, USA).

Row | Substance | SI (Selectivity index, HC50 value/the minimum concentration value of inhibiting microbial growth)
1 | FLGIIGKLLSGLL-NH2 [VM-3G] | 9.686
2 | FLKIIGKLLSGLL-NH2 [VM-3K] | 11.20
3 | FLPIIGKLLSGLL-NH2 [VM] | 11.11
4 | FLWIIGKLLSGLL-NH2 [VM-3W] | 9.682
5 | FLYIIGKLLSGLL-NH2 [VM-3Y] | 105.6

No end group written: not given here.
